# Results published in PubChem BioAssay AID540275 (National Center for Advancing Translational Sciences (NCATS), 2011).
# Protein sequences, listed by entry. Tags and fused reporters are not part of them.
# UniProt Q8NER1, whole entry, looked up: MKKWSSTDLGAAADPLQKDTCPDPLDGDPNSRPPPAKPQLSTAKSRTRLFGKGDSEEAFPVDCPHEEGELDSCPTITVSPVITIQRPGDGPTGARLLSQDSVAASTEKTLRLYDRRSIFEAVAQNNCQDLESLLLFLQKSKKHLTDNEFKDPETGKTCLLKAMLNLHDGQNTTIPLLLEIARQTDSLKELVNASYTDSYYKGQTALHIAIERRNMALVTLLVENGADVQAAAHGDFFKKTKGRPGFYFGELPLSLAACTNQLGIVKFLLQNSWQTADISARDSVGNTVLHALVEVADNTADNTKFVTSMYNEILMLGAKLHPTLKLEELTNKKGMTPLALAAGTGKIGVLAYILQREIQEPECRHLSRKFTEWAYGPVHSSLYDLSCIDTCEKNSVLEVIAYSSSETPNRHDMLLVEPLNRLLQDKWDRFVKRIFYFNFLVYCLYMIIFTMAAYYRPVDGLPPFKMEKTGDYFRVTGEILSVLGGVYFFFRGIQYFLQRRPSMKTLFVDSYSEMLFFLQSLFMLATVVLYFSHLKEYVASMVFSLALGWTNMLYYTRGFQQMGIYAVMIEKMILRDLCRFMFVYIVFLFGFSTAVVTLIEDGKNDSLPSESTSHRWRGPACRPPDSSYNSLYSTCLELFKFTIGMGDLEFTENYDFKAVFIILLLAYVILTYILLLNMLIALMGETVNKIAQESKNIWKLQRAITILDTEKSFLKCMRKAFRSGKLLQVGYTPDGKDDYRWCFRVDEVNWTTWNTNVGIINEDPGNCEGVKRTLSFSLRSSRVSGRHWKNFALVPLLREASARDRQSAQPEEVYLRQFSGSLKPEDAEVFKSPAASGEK
# The campaign covered roughly 320,000 compounds. About 620 (0.19%) were called active. Inconclusive means that the source gave no clear call. Such entries were picked first, then a sample of the others. No stated cut-off is given here; in the data, active means activation above about 80%; inconclusive means between about 30% and that limit; inactive means weaker than that.
# Molecular target: Transient receptor potential cation channel subfamily V member 1 (Homo sapiens) (UniProt Q8NER1)
# Experiment: HTS Assay for Compounds that Act as Agonists of the Vanilloid Receptor 1; further: 0% is about no effect
# Settings: TRPV1-expressing cells, Fluo-8 calcium influx, agonist mode; at 8.33 µM, hits give high values
# Procedure, shortened: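 TRPV1-expressing cells were cultured overnight at 35.5C and loaded with Fluo-8 calcium dye for 40 to 90 min at room temperature. After a 10 s baseline, compound was added and calcium influx was read kinetically for 3 min (ex 480/em 520 nm).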
row,SMILES,activation
1,Cc1ccc(N2C(=O)CC(n3nc(C)cc3C)C2=O)cc1 (stereo not drawn),inactive: -2.1%
2,CCc1ccccc1NC(=O)Nc1cccn(Cc2ccccc2F)c1=O,inconclusive: 31.6%
3,CC1CCN(c2ccc3c(c2)S(=O)(=O)c2cccc(C(=O)NC4CCCCC4)c2C3=O)CC1,inconclusive: 32.7%
4,O=C(/C=C/c1ccc(OCCCF)cc1)Nc1ccnc(-c2ccncc2)n1,inconclusive: 52.5%
5,Cc1oc(-c2ccc(Cl)cc2)nc1CN1CCCC(C(=O)N2CCOCC2)C1 (stereo not drawn),inconclusive: 56.4%
6,CC1CCCCC1NC(=O)c1cn(C)c2ccc(S(=O)(=O)N3CCOCC3)cc2c1=O (stereo not drawn),inconclusive: 60.6%
7,CCN1C2=NCCCN2c2ccccc21,inactive: 2.77%
8,CC(C)(C)NC(=O)C(c1ccc(F)cc1)N(CCc1ccccc1)C(=O)c1ccn[nH]1 (stereo not drawn),inconclusive: 75.8%
9,Cc1cccc(-c2c3c(=O)n(C)c(=O)n(C)c3cn2-c2ccccc2O)c1,inconclusive: 37.8%
10,c1ccc(COCCCn2cc(-c3ccccc3)nn2)cc1,inconclusive: 41.4%
11,CC(C)NC(=S)NC(=O)c1ccc(Cl)cc1Cl,inactive: 6.84%
12,COc1ccc2cc(C(=O)C3CCCN(Cc4ccccn4)C3)ccc2c1 (stereo not drawn),inactive: 4.77%
13,O=C(Nc1ccc2c(c1)Cc1ccccc1-2)c1ccc(Br)o1,inconclusive: 64.8%
14,CC(C)(C)c1ccc(/C=C/C(=O)N2CCCCC2)cc1,active: 93.6%
15,Cc1ccc(C(=O)Cn2nnc(-c3ccccc3)n2)cc1,inconclusive: 38.2%
16,COc1cc2c(cc1OC)CN(C(=O)/C=C/c1ccc([N+](=O)[O-])cc1)CC2,inconclusive: 39%
17,N=c1c2c(ncn1Cc1ccco1)Oc1cc(O)ccc1C2c1ccccc1 (stereo not drawn),inactive: 5.88%
18,Cc1c(C(=O)Nc2ccc3c(c2)CCC3)cccc1[N+](=O)[O-],inconclusive: 58.1%
19,CS(=O)(=O)N1CCc2cc(C(=O)Nc3ccccc3Cl)ccc21,inconclusive: 36.7%
20,O=C(Nc1nnc(CCc2ccccc2)s1)c1cccc(F)c1,inactive: 13.6%

row,SMILES,activation
1,Cn1nnnc1SCc1c(F)cccc1F,inactive: 0.436%
2,COc1ccc(CCNC(=O)c2ccc(CNc3nc(=S)[nH]c4ccccc34)cc2)cc1OC,inactive: -0.822%
3,Cc1csc(NC(=O)c2ccc(C)c([N+](=O)[O-])c2)n1,inconclusive: 43.4%
4,COc1ccc2c(c1)CCc1c(C(=O)NCc3ccc(F)cc3)noc1-2,inconclusive: 39.2%
5,Cc1cc(-c2ccccc2)nc2cc(C(=O)N(Cc3ccccc3)Cc3ccccc3)nn12,inconclusive: 30.2%
6,Cc1ccc(NC(=O)c2ccc3c(c2)C(=O)N(c2ccccc2C)C3=O)nc1,inconclusive: 43.7%
7,O=C(Nc1ccc([N+](=O)[O-])cc1)c1cc2ccccc2nc1Cl,inconclusive: 47.3%
8,O=C(N/N=C/CCc1ccccc1)c1ccc(CN2c3cccc4cccc(c34)S2(=O)=O)cc1,inactive: 4.07%
9,O=C(COc1ccc(Br)cc1)Nc1ccc(CN2CCOCC2)cc1,inconclusive: 41.1%
10,Nc1c(C(=O)c2cccs2)sc2nsc(SCCN3CCCCC3)c12,inconclusive: 49.6%
11,Cc1cc(Nc2ncc(Cl)cc2Cl)n(-c2ccccc2C)n1,inactive: 3.29%
12,Nc1nonc1C(=O)N/N=C/c1cc(Br)ccc1O,inconclusive: 30.1%
13,COc1cc(C(=S)N2CCN(c3ccccc3Cl)CC2)cc(O)c1O,inactive: 5.92%
14,COc1ccc(CCNC(=S)NCc2cccs2)cc1OC,inconclusive: 39.7%
15,CCCOc1ccc(/C=C/C(=O)N2CCOCC2)cc1,active: 89.4%
16,Nc1nnc(SCc2cn3cc(Cl)ccc3n2)s1,inconclusive: 43.7%
17,COc1cc(/C=C(\C#N)C(=O)Nc2cccc(C(=O)O)c2)ccc1OCc1ccc(Cl)cc1,inactive: 3.06%
18,CNC(=O)c1ccsc1NC(=O)c1ccc2c(c1)CCCC2,inconclusive: 53.2%
19,O=S(=O)(Nc1ccccc1N1CCCCC1)c1ccc(F)cc1,inconclusive: 63.3%
20,CCCCc1ccc(NC(=S)N2CCCC(C)C2)cc1 (stereo not drawn),inconclusive: 37.8%

# Reprinted at random: 5 compounds from above
row,SMILES,activation
2,COc1ccc(CCNC(=O)c2ccc(CNc3nc(=S)[nH]c4ccccc34)cc2)cc1OC,inactive: -0.822%
10,Nc1c(C(=O)c2cccs2)sc2nsc(SCCN3CCCCC3)c12,inconclusive: 49.6%
3,Cc1csc(NC(=O)c2ccc(C)c([N+](=O)[O-])c2)n1,inconclusive: 43.4%
17,COc1cc(/C=C(\C#N)C(=O)Nc2cccc(C(=O)O)c2)ccc1OCc1ccc(Cl)cc1,inactive: 3.06%
4,COc1ccc2c(c1)CCc1c(C(=O)NCc3ccc(F)cc3)noc1-2,inconclusive: 39.2%

# Carrying on:

row,SMILES,activation
1,Cc1cc2cc(CNC(=O)Cc3ccc([N+](=O)[O-])cc3)ccc2n1C,inconclusive: 48.3%
2,Cc1cccc(NC(=O)CO/N=C/c2ccc3c(c2)OCO3)c1,inconclusive: 40.8%
3,C[C@H](NC(=O)c1nc[nH]c1C(=O)N[C@@H](Cc1ccccc1)C(=O)OC(C)(C)C)C(=O)OCc1ccccc1,inconclusive: 41.4%
4,CCN(CC)CC#CCC(OC)(c1ccccc1)c1ccccc1,inactive: 4.27%
5,CC(C)C[C@H](NC(=O)c1nc[nH]c1C(=O)NCCCCCNC(=O)OC(C)(C)C)C(=O)OC(C)(C)C,inconclusive: 47.2%
6,O=C(NCc1ccco1)c1cc(NS(=O)(=O)c2cccc([N+](=O)[O-])c2)ccc1O,inactive: 2.52%
7,Cc1cc(C)nc(-n2nc(C)cc2NC(=O)c2ccc(F)cc2F)n1,inconclusive: 32.8%
8,CC(=O)N1CCN(S(=O)(=O)c2cccc(C(=O)Nc3nc4c(s3)CCCC4)c2)CC1,inconclusive: 59.7%
9,CCN(CC)S(=O)(=O)c1ccc(N/N=C/c2cc(OC)ccc2O)nc1,inactive: 16.8%
10,Fc1cccc(NC(=S)NCc2ccc(Cl)cc2)c1,inconclusive: 50.3%
11,COCCCNc1nc2cc(OC)c(OC)cc2c2nc(-c3ccccc3)nn12,inconclusive: 46.4%
12,Cc1cc(C)nc(NN2C(=O)/C(=C/c3ccccc3)SC2=S)n1,inactive: -2.12%
13,Cc1ccc(/C=N/NC(=O)Cn2cnc3ccccc32)cc1,inactive: 1.99%
14,Cc1ccc(NC(=O)COc2ccc(-n3ccnc3)cc2)cc1Cl,inconclusive: 34.4%
15,CC(C)c1ccc(OCC(=O)NCc2ccccc2)cc1,inconclusive: 67.5%
16,O=C(COC(=O)c1ccccn1)Nc1nc(-c2cccc([N+](=O)[O-])c2)cs1,inactive: -4.77%
17,N#C/C(=C\c1ccc[nH]1)Sc1nc2ccccc2s1,inconclusive: 49.8%
18,CC1CCCCC1NC(=O)CN1CCC(NC(=O)c2ccc([N+](=O)[O-])cc2)CC1 (stereo not drawn),inactive: 0.623%
